According to patent publication EP4667483A1, “HUMAN TRANSFERRIN RECEPTOR-BINDING PEPTIDE” (JCR Pharmaceuticals Co., Ltd., priority 2023, dated 2024):
At least one compound was matched to its structure with a doubt left. Numbered stars: 1 amine (or outer) side, 2 acyl side, 3 side chain; on linkers, the order of the positions; unused ones are H or OH. Bridge positions count the residues as written; N and C are the ends. Square brackets hold non-standard residues; d marks the D form. Peptide text beside a SMILES is read from it. * marks the point of attachment. X2 = O=C([C@H](Cc1cn(CCO)c2ccccc12)N[*:1])[*:2]; Phe(3-COOH) = N[C@@H](Cc1cccc(C(=O)O)c1)C(=O)O; NMePhe(3-Cl) = CN[C@@H](Cc1cccc(Cl)c1)C(=O)O; NMeY = CN[C@@H](Cc1ccc(O)cc1)C(=O)O; PEG4 = NCCOCCOCCOCCOCCC(=O)O; Carboxymethyl = O=C(O)C*

Protein sequences, listed by entry. Tags and fused reporters are not part of them.
UniProt P02786, whole entry: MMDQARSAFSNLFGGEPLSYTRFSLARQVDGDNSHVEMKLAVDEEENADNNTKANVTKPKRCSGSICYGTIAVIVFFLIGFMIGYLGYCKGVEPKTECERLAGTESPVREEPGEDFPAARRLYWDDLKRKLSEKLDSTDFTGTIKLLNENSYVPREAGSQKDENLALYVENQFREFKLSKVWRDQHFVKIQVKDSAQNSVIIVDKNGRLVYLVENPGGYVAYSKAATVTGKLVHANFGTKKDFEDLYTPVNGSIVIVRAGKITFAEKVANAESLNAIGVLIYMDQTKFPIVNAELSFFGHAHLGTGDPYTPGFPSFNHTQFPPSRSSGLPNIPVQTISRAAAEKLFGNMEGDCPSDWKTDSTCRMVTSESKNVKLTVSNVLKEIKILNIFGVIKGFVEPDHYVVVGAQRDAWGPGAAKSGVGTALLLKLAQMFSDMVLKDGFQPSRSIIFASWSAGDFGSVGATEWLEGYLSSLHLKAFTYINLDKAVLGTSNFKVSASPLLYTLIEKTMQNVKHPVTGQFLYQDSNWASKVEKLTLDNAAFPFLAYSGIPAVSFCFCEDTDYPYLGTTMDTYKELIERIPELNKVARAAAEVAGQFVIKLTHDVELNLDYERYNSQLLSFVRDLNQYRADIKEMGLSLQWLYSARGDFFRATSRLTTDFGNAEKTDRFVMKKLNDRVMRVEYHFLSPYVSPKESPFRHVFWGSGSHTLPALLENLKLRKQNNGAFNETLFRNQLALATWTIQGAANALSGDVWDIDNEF

Experiments:
[1] = molecular target: T1, human transferrin receptor (hTfR) (Homo sapiens, UniProt P02786); assay: SPR measurement under pH 7.4 conditions (Biacore T200, CM3 chip, hTfR captured by His Tag antibody); assay type: binding; settings: read-out: hTfR SPR pH7.4 KD
Method: (§1) Molecular interactions between the synthesized peptides and the transferrin receptor (hTfR) were evaluated by surface plasmon resonance (SPR) using the following method. The specific assay procedure is described below.
An CM3 sensor chip (Cytiva) was inserted into BiacoreT200 (Cytiva), then a priming operation was performed three times by using a running buffer: HBS-P+, pH7.4 (Cytiva), and an equilibrium state was created at a flow rate of […]. Ligand immobilization was performed at a flow rate of 10 µL/min. After mixing 50 µL each of 60 mM EDC solution (Cytiva) and 650 mM NHS solution (Cytiva), the mixture was reacted at a flow rate of 10 µL/min for 420 seconds. 150 µL of […] THE His Tag Antibody, mAb, Mouse (GenScript) was prepared by diluting with 10 mM acetic acid solution (pH 5.0), and reacted at a flow rate of 10 µL/ min for 420 seconds. Then, THE His Tag Antibody, mAb, Mouse (GenScript) was immobilized as a capture molecule on the CM3 sensor chip. […]
(§2) The kinetic evaluation model was single-cycle kinetics, and curve fitting was performed using Biacore T200 Evaluation Software Version 3.0 (Cytiva). The binding of the peptide to hTfR was evaluated by performing curve fitting on the obtained sensorgram by the least squares method and obtaining the kon value, the koff value, and the KD value.

[2] = molecular target: T1, human transferrin receptor (hTfR); assay: SPR measurement under pH 6.0 conditions (Biacore T200, NTA chip, immobilized hTfR); assay type: binding; settings: read-out: hTfR SPR pH6.0 KD
Method: as §1
An NTA sensor chip (Cytiva) was inserted in a Biacore T200 (Cytiva), a priming operation was performed 3 times with a running buffer: HBS-P+ pH 6.0 (Cytiva), and an equilibrium state was created at a flow rate of 30 µL/min. A ligand immobilization operation was carried out at a flow rate of 10 µL/min.
The surface of the NTA sensor chip was washed with 350 mM EDTA solution, nickel ions were loaded into the carbomethyldextran chains of the sensor chip with a 500 µM aqueous nickel chloride solution, and then washing was performed with 3 mM EDTA solution. After mixing 50 µL of each of 60 mM EDC solution (Cytiva) and 650 mM NHS solution (Cytiva), the mixture was reacted for 420 seconds at a flow rate of 10 µL/min. […]
as §2

Structure (SMILES): CC[C@H](C)[C@@H]1NC(=O)[C@H](Cc2ccc(OCC(=O)O)cc2)NC(=O)[C@H](Cc2ccc(O)cc2)NC(=O)[C@H](CC(N)=O)NC(=O)[C@H](Cc2cn(CCO)c3ccccc23)NC(=O)[C@H](C(C)C)NC(=O)[C@H](Cc2cccc(Cl)c2)N(C)C(=O)[C@H]([C@@H](C)O)NC(=O)[C@H](C)NC(=O)CSC[C@@H](C(=O)NCCOCCOCCOCCOCCC(N)=O)NC(=O)[C@H](Cc2ccc(O)cc2)N(C)C(=O)[C@H](Cc2cccc(C(=O)O)c2)NC(=O)[C@H](CCCNC(=N)N)NC(=O)[C@H](CCC(N)=O)NC(=O)[C@H]([C@@H](C)CC)NC1=O [compound 77] ({CH2CO}-AT[NMePhe(3-Cl)]V[X2]NYY(Carboxymethyl)IIQR[Phe(3-COOH)][NMeY]C[PEG4]-NH2; thioether N-15)
- Kd [1]: 0.0128 µM
- Kd [2]: 0.0255 µM
